Measurements taken from patent US20250171542A1.
Numbering of substitutions follows the chain as printed. Results are given in words; binding and its absence hold for the method and conditions named. For part of these data: Binding can be weak; no strength is given.

B1: 27A2 (antibody, human IgG1, V domains shown)
VH: QEQLEESGGGLVQPEGSLTLTCTASGFSFSSNHYMSWVRQAPGKGLEWIGSIGVGSGITDYASWAKGRFTISKASSTTLTLQMTTLTAADTAIYFCARWTSGGGGFGLWGPGTLVTVSS
VL: QVLTQTSSPVSAAVGGTVTINCQSSQTIYSDYLFWYQQTPGQPPKLLIYQTSTLASGVPSRFKGSGSGTEFTLTISEIQCDDAATYYCQGYYSGYIWTFGGGTEVVVR
B2: 28B3 (antibody, human IgG1, V domains shown)
VH: QSVEESGGRLVTPGTPLTLSCTASGFSLSSYYMIWVRQAPGKGLEYIGYVYTGSGNTWYASWAKGRFAISKASTTVDLMITSPTTEDTATYFCASGADGVYDWGWDIWGPGTLVTVSL
VL: DIVMTQTPASVEAAVGDTVTIKCQASQSIYSLLAWYQQKPGQRPKLLIAGASNLESGVPSRFSGSGSGTEYTLTISALECADAATYYCQNNYDSGRIYGLAFGGGTEVVVK
B3: 32E2 (antibody, human IgG1, V domains shown)
VH: QEQLEESGGDLVKPEGSLTLTCTASGFSFSSSYYMSWVRQAPGMGLEWIASISGGVTDNAYYASWAKGRFTVSKTSSTTVTLQLTSLTAADTATYFCARDSSSGYFFLLWGPGTLVTVSS
VL: LVMTQTPSSVSAAVGGTVTINCQASQNIYSNLAWYQQKPGQRPKLLIFGASNLRSGVPSRFKGSGSGTEYTLTISDLECADAATYYCQEGYSIGNVDNPFGGGTEVVVK
B4: 33E8 (antibody, human IgG1, V domains shown)
VH: QSLEESGGDLVKPGASLTLTCTASGFYFSSGYDMSWVRQAPGKGLEWIASIFTTSGSTWYANWAKGRFTISKTSSTTVTLQMTSLTDADTATYFCTKDGVGSFYMNLWGPGTLVTVSS
VL: LVMTQTPASVEVAVGGTVTIKCQASQTIGSNLAWYQQRPGQPPKLLIYKAFTLASGVSSRFKGSGSGTQFTLTISGVECADAATYYCQQGATRINIDNAFGGGTEVVVK
B5: 33H7 (antibody, human IgG1, V domains shown)
VH: QEQLVESGGGLVQPEGSLTVTCTASGFDLSRYFYMSWVRQAPGKGLEWIASISTGSDITDYASWAKGRFTISKTSSTTVTLQMTTLTAADTAIYFCARWTSGGGGFGLWGPGTLVTVSS
VL: QVLTQTASPVSAAVGGTVTLNCQSSQSIYNNYLSWYQQRAGQPPKLLIYSTATLASGVPSRFKGSGSGTQFTLTISEIQCEDAATYYCQGYYSGYIWTFGGGTEVVVK
B6: 55H3/76D6 (antibody, human IgG1, V domains shown)
VH: QEQLEESGGGLVQPEGSLTLTCTVSGFSFSGDYYMSWVRQAPGKGLEWVASIYTGSLNSYYATWAKGRFTISLTSSTTVTLQMTSLTAADTATYFCARRNKNADYGHFDLWGPGTLVTVSS
VL: YDMTQTPASVEVAVGGTVTIKCQASESINDRLAWYQQKPGQPPKLLIYAASTLASGVPSRFRGSGSGTDFTLTISDLECADAATYYCQQGWTVSSLDNAFGGGTEVVAM
B7: 56E5 (antibody, human IgG1, V domains shown)
VH: B6 VH with V24A, V49I, S59T, N100H
VL: B6 VL with A8G, E26Q, K38T, A49G, R62K, D69E, M109K
B8: 56H3 (antibody, human IgG1, V domains shown)
VH: B1 VH with E5V, G26E, S31N, H33Y, I49L, V54I, L79V
VL: B1 VL with T39K, K63S, E70Q, E77G, I78V, R108N
B9: 57B10 (antibody, human IgG1, V domains shown)
VH: B6 VH with V24A, G31D, V49I, S59T, Y105W
VL: B6 VL with E26Q, N29S, D30T, R31A
B10: 57F11 (antibody, human IgG1, V domains shown)
VH: QEHLEESGGGLVQPEGALTLTCTASGFSFSGDYYMSWVRQAPGKGLEWIASIYTGSLNTYYATWAKGRFTISIASSTTVTLQVTSLTAADTATYFCARRTKNGDYGYFDLWGPGTLVTVSS
VL: B6 VL with E26Q, R62K, D69E, D97E, M109K
B11: 62E6 (antibody, human IgG1, V domains shown)
VH: B6 VH with G10D, Q13K, V24A, V49I, S59I
VL: B6 VL with E26Q, G40R, A49G, R62K, D69E, A80V, M109K
B12: 69D10 (antibody, human IgG1, V domains shown)
VH: B6 VH with V24A, Y33W, V49I, T54S, S59T, I71V
VL: B6 VL with E26Q, N29G, D30N, R31A, A50T, R62K, D69E, A80G, M109K
B13: 73C8 (antibody, human IgG1, V domains shown)
VH: B6 VH with S59T
VL: B6 VL with E26Q
B14: 74A9 (antibody, human IgG1, V domains shown)
VH: QSVEESGGRLVTPGTPLTLTCAVSGFSLSTYALGWVRQAPGKGLEWIGSISIGGATYYASWAKGRFTISKTSTTVDLKIASPTTEDTATYFCARNVDSIYLDAFHTWGPGTLVTVSL
VL: DIVMTQTPASVEAAVGGTVTIKCQASQNIYNNLAWYQQKPGQPPKLLIYRASTLASGVPSRFKGSGSGTEYTLTISDLECDDAATYYCQTYYLTTTTNAFGGGTEVVVK
B15: 74F4 (antibody, human IgG1, V domains shown)
VH: B6 VH with V24A, V49I, S59T
VL: B6 VL with E26Q, K38S, A49G, R62K, M109K

Assays:
[1] = molecular target: cynomolgus PD-L1-His (Sino Biological, Cat. 90251-C08H) (cynomolgus); experiment: ELISA, coated cyno PD-L1-His
[2] = molecular target: rabbit PD-L1 (Acro Biosystems, Cat #PDL-R52H6) (rabbit); experiment: ELISA

Row | Binder | binding [1] | binding [2]
1 | B1 | binds | no binding
2 | B2 | binds | no binding
3 | B3 | binds | no binding
4 | B4 | binds | no binding
5 | B5 | binds | no binding
6 | B6 | binds | no binding
7 | B7 | binds | no binding
8 | B8 | binds | no binding
9 | B9 | binds | no binding
10 | B10 | binds | no binding
11 | B11 | binds | no binding
12 | B12 | binds | no binding
13 | B13 | binds | no binding
14 | B14 | binds | no binding
15 | B15 | binds | no binding
